# The supplement of paper PMC7666118
# Protein sequences, listed by entry. Tags and fused reporters are not part of them. Lines headed by an entry give the natural chain unless they say otherwise; changes in a name come on top.
# UniProt P78356: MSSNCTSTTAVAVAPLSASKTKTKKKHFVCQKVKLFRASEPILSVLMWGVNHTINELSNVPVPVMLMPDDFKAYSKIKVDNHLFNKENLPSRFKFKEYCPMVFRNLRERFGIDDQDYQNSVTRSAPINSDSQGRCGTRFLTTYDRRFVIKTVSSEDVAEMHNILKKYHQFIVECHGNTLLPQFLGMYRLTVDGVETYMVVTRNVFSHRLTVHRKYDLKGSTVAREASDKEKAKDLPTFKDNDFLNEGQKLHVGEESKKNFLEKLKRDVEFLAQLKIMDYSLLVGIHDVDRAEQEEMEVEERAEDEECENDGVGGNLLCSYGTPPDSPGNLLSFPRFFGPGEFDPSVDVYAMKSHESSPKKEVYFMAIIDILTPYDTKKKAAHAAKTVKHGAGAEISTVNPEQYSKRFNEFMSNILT
# UniProt P48426: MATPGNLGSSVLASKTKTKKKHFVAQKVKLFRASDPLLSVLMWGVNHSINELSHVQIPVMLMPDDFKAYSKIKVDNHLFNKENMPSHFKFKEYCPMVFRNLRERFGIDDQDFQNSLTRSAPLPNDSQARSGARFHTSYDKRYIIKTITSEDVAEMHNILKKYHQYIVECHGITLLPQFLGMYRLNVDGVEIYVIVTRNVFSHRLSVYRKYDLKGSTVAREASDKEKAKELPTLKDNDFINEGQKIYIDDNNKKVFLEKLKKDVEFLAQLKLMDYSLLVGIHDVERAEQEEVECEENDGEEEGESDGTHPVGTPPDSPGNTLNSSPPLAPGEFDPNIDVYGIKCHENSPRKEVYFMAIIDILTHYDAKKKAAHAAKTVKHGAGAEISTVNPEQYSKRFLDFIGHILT
# UniProt Q9H6A9: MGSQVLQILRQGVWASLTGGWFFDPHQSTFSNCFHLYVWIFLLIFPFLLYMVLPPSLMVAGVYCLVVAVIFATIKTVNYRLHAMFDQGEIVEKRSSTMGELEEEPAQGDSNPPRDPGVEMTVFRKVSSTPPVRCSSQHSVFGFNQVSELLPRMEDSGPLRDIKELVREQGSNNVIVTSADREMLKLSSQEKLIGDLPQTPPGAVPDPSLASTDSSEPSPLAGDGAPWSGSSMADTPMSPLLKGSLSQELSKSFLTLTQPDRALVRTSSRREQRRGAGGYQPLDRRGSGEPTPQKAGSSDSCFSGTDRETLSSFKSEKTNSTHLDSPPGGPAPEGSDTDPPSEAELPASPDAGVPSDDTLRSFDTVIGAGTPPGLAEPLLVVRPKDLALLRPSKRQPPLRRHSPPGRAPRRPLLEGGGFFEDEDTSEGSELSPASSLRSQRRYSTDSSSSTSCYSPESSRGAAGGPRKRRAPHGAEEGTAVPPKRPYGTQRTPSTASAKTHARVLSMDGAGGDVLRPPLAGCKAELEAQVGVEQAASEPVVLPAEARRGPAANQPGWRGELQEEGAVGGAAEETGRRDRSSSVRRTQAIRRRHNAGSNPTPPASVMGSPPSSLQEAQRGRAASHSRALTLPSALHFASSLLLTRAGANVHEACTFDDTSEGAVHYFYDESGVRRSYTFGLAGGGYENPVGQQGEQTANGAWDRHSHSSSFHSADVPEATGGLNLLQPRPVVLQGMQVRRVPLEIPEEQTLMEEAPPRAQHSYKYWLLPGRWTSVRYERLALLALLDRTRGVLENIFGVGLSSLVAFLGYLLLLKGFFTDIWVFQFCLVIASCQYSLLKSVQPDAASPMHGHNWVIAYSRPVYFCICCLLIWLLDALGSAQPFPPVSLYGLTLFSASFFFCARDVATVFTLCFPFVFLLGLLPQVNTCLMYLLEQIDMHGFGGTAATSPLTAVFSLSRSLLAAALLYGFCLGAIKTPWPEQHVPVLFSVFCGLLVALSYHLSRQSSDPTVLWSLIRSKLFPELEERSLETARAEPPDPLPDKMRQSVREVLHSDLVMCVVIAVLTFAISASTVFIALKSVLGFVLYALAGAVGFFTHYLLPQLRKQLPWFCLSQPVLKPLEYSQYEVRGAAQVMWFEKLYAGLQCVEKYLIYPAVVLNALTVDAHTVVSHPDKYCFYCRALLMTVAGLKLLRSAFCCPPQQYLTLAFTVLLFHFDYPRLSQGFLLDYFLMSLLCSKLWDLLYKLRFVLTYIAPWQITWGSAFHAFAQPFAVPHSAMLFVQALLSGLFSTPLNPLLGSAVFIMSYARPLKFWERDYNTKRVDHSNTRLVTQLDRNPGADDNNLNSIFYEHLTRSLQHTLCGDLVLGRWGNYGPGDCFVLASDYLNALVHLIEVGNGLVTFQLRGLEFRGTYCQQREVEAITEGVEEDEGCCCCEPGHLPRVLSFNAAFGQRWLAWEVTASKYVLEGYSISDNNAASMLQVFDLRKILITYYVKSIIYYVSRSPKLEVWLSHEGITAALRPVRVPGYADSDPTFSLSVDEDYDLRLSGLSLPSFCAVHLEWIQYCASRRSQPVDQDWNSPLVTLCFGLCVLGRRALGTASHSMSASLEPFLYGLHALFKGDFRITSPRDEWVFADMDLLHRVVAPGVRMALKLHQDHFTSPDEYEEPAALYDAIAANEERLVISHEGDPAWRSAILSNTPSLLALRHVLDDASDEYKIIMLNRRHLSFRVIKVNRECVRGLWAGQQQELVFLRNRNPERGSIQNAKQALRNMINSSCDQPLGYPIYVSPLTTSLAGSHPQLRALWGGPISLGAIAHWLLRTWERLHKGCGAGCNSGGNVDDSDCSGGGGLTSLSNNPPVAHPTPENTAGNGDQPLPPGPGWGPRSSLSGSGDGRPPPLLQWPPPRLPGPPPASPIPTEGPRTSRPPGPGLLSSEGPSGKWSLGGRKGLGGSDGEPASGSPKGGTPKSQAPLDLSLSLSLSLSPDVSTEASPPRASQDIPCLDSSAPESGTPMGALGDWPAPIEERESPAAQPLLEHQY
# UniProt Q92643: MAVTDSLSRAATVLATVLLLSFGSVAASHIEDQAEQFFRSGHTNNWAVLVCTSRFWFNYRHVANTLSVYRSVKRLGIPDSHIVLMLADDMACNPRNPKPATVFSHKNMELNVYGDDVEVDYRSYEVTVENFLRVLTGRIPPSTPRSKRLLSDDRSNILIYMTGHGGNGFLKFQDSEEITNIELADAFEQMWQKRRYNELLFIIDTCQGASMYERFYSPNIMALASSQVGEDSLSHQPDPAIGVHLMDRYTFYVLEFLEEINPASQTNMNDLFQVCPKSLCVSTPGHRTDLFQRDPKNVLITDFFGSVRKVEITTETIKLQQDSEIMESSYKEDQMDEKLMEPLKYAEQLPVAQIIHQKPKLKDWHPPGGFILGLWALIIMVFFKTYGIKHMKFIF
# UniProt Q8TBX8: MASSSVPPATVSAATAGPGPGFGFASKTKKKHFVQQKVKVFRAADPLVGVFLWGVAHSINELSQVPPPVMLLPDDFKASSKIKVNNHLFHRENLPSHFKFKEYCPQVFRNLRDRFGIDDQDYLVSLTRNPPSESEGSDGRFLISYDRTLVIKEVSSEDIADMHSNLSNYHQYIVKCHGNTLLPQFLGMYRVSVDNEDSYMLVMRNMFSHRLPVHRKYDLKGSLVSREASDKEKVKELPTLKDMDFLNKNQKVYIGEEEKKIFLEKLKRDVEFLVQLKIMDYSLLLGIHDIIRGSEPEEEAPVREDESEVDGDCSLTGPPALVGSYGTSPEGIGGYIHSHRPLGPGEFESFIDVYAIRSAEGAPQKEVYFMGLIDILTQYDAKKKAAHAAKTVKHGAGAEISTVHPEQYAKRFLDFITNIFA
# UniProt Q9NWS0, whole entry: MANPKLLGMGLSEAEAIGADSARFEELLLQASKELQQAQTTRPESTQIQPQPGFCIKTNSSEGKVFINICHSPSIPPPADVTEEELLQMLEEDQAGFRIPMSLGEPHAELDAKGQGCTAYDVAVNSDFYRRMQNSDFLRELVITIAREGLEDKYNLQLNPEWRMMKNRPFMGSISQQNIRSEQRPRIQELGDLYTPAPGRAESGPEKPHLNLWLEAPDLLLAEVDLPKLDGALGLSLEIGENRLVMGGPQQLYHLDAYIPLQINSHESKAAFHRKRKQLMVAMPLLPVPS
# UniProt Q9NWT1: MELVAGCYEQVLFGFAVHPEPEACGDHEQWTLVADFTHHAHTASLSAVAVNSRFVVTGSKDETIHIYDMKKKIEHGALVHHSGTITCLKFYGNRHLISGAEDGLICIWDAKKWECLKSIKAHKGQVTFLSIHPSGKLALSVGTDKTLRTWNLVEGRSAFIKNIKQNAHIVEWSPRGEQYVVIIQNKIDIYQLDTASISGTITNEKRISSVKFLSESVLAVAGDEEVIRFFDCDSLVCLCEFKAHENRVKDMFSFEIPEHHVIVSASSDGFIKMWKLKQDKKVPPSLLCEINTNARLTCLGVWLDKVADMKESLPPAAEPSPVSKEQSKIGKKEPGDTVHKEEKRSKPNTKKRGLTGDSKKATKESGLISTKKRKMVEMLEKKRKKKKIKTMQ
# UniProt Q86W56: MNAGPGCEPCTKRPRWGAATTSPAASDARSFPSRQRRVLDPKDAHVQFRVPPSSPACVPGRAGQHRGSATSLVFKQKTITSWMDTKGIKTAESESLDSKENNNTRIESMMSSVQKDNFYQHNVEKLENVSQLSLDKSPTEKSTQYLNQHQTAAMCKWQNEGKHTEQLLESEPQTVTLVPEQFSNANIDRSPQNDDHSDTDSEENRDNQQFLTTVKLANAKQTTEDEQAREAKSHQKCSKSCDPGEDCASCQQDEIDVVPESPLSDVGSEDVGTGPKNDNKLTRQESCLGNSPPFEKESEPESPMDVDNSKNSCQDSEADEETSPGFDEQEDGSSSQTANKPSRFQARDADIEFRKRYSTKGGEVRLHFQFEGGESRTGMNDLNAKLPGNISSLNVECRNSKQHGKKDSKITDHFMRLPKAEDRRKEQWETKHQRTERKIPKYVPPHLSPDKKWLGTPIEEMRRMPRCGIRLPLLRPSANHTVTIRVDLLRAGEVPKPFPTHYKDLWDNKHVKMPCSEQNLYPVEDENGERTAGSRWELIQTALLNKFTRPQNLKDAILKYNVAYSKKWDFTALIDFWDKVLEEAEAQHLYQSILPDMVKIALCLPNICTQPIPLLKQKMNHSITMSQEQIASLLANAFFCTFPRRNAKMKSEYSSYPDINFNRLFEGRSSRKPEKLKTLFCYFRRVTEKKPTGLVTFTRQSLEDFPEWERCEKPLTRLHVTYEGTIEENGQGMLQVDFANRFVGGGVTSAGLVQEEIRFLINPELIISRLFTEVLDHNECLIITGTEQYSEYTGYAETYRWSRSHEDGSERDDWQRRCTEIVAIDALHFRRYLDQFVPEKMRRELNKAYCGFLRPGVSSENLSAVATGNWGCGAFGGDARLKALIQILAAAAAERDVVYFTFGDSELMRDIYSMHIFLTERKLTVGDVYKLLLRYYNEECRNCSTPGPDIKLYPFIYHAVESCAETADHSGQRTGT
# UniProt Q8IWS0: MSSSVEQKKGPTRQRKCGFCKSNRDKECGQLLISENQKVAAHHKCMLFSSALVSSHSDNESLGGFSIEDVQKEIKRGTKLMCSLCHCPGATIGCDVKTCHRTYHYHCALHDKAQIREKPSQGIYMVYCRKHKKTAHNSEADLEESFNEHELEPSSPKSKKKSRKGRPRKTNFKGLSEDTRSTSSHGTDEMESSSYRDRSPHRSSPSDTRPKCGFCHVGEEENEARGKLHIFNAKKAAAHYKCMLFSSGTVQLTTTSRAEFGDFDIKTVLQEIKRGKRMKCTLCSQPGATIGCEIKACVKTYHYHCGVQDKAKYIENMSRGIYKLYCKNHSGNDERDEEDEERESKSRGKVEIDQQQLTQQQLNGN
# UniProt Q6ZUJ8: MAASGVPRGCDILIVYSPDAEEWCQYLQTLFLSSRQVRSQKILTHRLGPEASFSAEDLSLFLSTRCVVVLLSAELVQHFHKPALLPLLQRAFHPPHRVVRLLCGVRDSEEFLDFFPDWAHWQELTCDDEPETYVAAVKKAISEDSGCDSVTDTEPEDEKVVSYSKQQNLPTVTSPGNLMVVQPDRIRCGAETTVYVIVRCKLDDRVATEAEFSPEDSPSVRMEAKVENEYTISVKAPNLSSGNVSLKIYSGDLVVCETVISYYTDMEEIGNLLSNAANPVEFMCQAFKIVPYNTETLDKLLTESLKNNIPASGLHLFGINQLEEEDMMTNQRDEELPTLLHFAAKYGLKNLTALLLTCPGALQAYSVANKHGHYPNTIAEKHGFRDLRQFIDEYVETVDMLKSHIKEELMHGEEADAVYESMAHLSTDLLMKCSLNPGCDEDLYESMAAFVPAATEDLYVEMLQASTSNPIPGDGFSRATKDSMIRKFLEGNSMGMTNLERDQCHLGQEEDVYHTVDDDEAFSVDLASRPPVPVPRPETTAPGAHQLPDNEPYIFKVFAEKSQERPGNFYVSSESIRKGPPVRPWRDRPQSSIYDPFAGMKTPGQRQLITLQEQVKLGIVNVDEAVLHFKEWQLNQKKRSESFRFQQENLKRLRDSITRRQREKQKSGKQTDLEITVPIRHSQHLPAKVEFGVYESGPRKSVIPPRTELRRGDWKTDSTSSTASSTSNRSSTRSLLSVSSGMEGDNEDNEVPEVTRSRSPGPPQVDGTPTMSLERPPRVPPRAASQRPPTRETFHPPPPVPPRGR
# Some of the results follow.
# Compound: COc1ccc(Cn2ccc3cc(C)c(C(=O)NO)cc32)cc1
# Assay: dose-dependent thermal stabilisation call (2D-TPP, DLPTP, 10% FDR) (binary (1 = stabilised)); higher = stabilised by the compound
# Details: system: HL-60 intact cells; concentration range 0.04-10 µM
# Method: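 2D thermal proteome profiling in intact HL-60 cells treated with BRD-3811 (0, 0.04, 0.29, 2, 10 uM) for 90 min at 37 C, then heated 3 min at one of 12 temperatures (42-63.9 C). Soluble protein was quantified by TMT10 MS. The value is the DLPTP call of the paper: dose-dependent thermal stabilisation over all temperatures at 10% FDR (F-test of a dose-response against a flat model); one experiment, one call per tested protein.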
row,Target,dose-dependent thermal stabilisation call
1,PDCD7 (UniProt Q8N8D1),inactive: 0
2,PHF23 (UniProt Q9BUL5),inactive: 0
3,PES1 (UniProt O00541),inactive: 0
4,PIP4K2B (UniProt P78356),inactive: 0
5,PIP4K2A (UniProt P48426),inactive: 0
6,PHKG2 (UniProt P15735),inactive: 0
7,PHRF1 (UniProt Q9P1Y6),inactive: 0
8,OSGEP (UniProt Q9NPF4),inactive: 0
9,PCNXL3 (UniProt Q9H6A9),inactive: 0
10,PLEC1 (UniProt Q15149),inactive: 0
11,PDCD5 (UniProt O14737),inactive: 0
12,PAPSS1 (UniProt O43252),inactive: 0
13,PDK3 (UniProt Q15120),inactive: 0
14,PIGX (UniProt Q8TBF5),inactive: 0
15,PIGK (UniProt Q92643),inactive: 0
16,PIK3R2 (UniProt O00459),inactive: 0
17,PFN2 (UniProt P35080),inactive: 0
18,PDE5A (UniProt O76074),inactive: 0

row,Target,dose-dependent thermal stabilisation call
1,PHPT1 (UniProt Q9NRX4),inactive: 0
2,PLCB3 (UniProt Q01970),inactive: 0
3,PI4K2A (UniProt Q9BTU6),inactive: 0
4,PDS5A (UniProt Q29RF7),inactive: 0
5,PIP4K2C (UniProt Q8TBX8),inactive: 0
6,OXA1L (UniProt Q15070),inactive: 0
7,PIH1D1 (UniProt Q9NWS0),inactive: 0
8,PAK4 (UniProt O96013),inactive: 0
9,OTUD6B (UniProt Q8N6M0),inactive: 0
10,PCYOX1L (UniProt Q8NBM8),active: 1
11,OSTF1 (UniProt Q92882),inactive: 0
12,PAK1IP1 (UniProt Q9NWT1),inactive: 0
13,PARG (UniProt Q86W56),inactive: 0
14,P2RX4 (UniProt Q99571),inactive: 0
15,PAFAH1B2 (UniProt P68402),inactive: 0
16,PHF6 (UniProt Q8IWS0),inactive: 0
17,PARN (UniProt O95453),inactive: 0
18,PIK3AP1 (UniProt Q6ZUJ8),inactive: 0

# 10 successive entries from above, for reference:
row,Target,dose-dependent thermal stabilisation call
13,PDK3 (UniProt Q15120),inactive: 0
14,PIGX (UniProt Q8TBF5),inactive: 0
15,PIGK (UniProt Q92643),inactive: 0
16,PIK3R2 (UniProt O00459),inactive: 0
17,PFN2 (UniProt P35080),inactive: 0
18,PDE5A (UniProt O76074),inactive: 0
1,PHPT1 (UniProt Q9NRX4),inactive: 0
2,PLCB3 (UniProt Q01970),inactive: 0
3,PI4K2A (UniProt Q9BTU6),inactive: 0
4,PDS5A (UniProt Q29RF7),inactive: 0
